The exact form of at least one protein or probe is not confirmed. For part of these data: Weaker means in comparison with the reference protein, sequence or condition of that experiment. At least one verdict rests on a figure or table, not on a statement of the authors.
Legend:
Sp1 = Sp1 (UniProt P08047); assay: EMSA; details: 10 mM Tris pH 7.5, 50 mM KCl, 1 mM DTT, 75 ng/ul poly(dI-dC), 0.25 mg/ml BSA, 40 fmol probe, 1 ug protein, 20 min room temperature; Sp3 buffer plus 5% glycerol; commercial protein; label: 5'-biotin on both strands
Sp3 = Sp3 (UniProt Q02447); assay: EMSA; details: 5 mM MgCl2, stated 'not or only negligibly occupied'; 10 mM Tris pH 7.5, 50 mM KCl, 1 mM DTT, 75 ng/ul poly(dI-dC), 0.25 mg/ml BSA, 40 fmol probe, 1 ug protein, 20 min room temperature; Sp3 buffer plus 5% glycerol; commercial protein; label: 5'-biotin on both strands

Amino acid sequences for entries named in this document (tags omitted). A change or cut given only in a name is not applied to a line headed by its entry.
UniProt P08047, whole entry: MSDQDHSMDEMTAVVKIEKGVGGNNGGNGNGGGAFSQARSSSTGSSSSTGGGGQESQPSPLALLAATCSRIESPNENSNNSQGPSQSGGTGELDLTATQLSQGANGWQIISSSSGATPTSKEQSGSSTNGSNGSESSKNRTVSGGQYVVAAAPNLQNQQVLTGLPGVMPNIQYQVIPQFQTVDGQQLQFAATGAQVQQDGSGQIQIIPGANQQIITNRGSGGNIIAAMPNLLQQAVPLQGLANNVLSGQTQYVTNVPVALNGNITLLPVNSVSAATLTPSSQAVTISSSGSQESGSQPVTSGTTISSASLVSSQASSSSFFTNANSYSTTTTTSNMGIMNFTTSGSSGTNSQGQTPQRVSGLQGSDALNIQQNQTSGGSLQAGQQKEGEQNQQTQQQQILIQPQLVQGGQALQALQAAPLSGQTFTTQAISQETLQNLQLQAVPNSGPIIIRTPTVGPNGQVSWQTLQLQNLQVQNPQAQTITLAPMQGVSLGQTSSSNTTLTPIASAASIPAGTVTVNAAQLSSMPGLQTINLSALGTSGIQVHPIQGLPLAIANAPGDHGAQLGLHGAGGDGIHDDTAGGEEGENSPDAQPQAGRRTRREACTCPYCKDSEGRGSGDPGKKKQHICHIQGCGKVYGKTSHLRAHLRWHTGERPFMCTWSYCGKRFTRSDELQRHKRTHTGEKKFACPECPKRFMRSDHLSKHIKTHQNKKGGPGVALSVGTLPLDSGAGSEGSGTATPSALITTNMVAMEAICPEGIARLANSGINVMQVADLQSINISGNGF
UniProt Q02447: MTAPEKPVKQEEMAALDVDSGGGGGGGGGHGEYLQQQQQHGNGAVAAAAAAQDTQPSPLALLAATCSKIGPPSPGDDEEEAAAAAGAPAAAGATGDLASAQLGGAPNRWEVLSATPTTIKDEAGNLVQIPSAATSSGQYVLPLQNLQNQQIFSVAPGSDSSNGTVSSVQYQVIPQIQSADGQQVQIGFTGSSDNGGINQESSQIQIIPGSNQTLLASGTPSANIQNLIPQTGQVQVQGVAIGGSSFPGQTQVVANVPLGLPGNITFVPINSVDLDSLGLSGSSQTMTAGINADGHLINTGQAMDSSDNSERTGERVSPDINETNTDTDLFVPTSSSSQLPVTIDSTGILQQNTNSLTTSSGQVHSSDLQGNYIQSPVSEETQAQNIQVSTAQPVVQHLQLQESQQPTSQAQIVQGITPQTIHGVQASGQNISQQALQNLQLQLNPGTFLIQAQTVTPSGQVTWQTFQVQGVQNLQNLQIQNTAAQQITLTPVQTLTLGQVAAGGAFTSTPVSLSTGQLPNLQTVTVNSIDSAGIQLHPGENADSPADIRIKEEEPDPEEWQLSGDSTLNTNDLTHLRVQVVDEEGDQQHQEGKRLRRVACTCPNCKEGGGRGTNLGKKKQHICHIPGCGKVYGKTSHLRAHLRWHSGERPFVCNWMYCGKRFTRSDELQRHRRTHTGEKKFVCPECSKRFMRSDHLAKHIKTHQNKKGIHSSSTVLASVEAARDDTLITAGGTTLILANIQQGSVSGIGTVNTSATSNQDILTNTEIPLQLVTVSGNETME

Sequence	binding result (Sp1)	binding result (Sp3)
ACAGGGGTGTGGGGAGGGGGCGCCG (double strand) [SP1.5]	binds	binds more weakly
CCCAGGCCCCGCCCTCTCCGCCTCG (double strand) [SP1.4]	binds	–
CCCCTCCCTGCGCGCCCCGTCCCCG (double strand) [SP1.7]	–	binds more weakly
GCCGCGCGGGCCAGGCGCCCGCCCC (double strand) [SP1.6]	binds	binds more weakly
GCCTCCTCCCCACCCCTTCAAGCCC (double strand) [SP1.1]	binds	binds more weakly
TCCTCCCTCGGCTCCTCCCCCAGGC (double strand) [SP1.3]	binds	–

Source: publication PMC6290791
